Inconclusive means that the source gave no clear call. Such entries were picked first, then a sample of the others. Potencies beside an inconclusive call are fits to weak or partial responses and may not hold up. Active and inactive are the calls of the source. The calls were made as follows: active = hit-call score of the fitted dose curve at least 0.9, where 1 is the maximum; inconclusive = response in the unintended direction; inactive = score below 0.9.
molecular target: human MAP Kinase-Activated Protein Kinase 2 (MAPKAPK2), MAPKAPK2 (gene 9261) (UniProt P49137); test: NVS_ENZ_hMAPKAPK2: NovaScreen (NVS) Enzymatic Assay for human MAP Kinase-Activated Protein Kinase 2 (MAPKAPK2) (AID 2283178)
Protocol: NVS_ENZ_hMAPKAPK2 is a biochemical, single-readout assay that uses extracted gene-proteins in a cell-free assay. Measurements were taken 1 hour after chemical dosing in a 384-well plate.NVS_ENZ_hMAPKAPK2 is one of one assay component(s) measured or calculated from the NVS_ENZ_hMAPKAPK2 assay. It is designed to make measurements of enzyme activity, a form of enzyme reporter, as detected with fluorescence intensity signals by Fluorescence and electrophoretic mobility shift technology.Data from the assay component NVS_ENZ_hMAPKAPK2 was analyzed into 1 assay endpoint. This assay endpoint, NVS_ENZ_hMAPKAPK2, was analyzed in the positive analysis fitting direction relative to DMSO as the negative control and baseline of activity. Using a type of enzyme reporter, loss-of-signal activity can be used to understand changes in the enzymatic activity as they relate to the gene MAPKAPK2. Furthermore, this assay endpoint can be referred to as a primary readout, because this assay has produced multiple assay endpoints where this one serves a enzymatic activity function. To generalize the intended target to other relatable targets, this assay endpoint is annotated to the kinase intended target family, where the subfamily is serine/threonine kinase.
Binding assays used specific radioligands (tritiated, iodinated) with non-radioactive competitive displacement ligands in agonist or antagonist protocols (as indicated) and various reference compounds and inhibitors to titrate specific binding to receptors and transporters. Most enzyme assays (CYPs, kinases, phosphatases, proteases, HDACs) used recombinant protein and specific substrates (fluorescence mostly, some colorimetric and radioactive) and inhibitors, followed by a biochemical separation of substrate and product. All assays for the biochemical HTS were initially run in duplicate at a single concentration (10 uM for CYP450 assays and 25 uM for all others). Assay-chemical combinations meeting a pre-defined threshold (e.g., 30% inhibition and other criteria defined below) were then run in singleton concentration-response format with maximum concentration of 20 uM for CYPs and 50 uM for all others. Each assay was run with positive and negative controls, and concurrent controls on every plate. The follow-up (secondary) screen tested active chemical-pairs in concentration series, as well as a few additional assays not tested in the primary screen, some selected negative inactives, and several cases re-run in the concentration series for confirmatory purposes.

Protein sequences, listed by entry. Tags and fused reporters are not part of them.
UniProt P49137, whole entry, looked up: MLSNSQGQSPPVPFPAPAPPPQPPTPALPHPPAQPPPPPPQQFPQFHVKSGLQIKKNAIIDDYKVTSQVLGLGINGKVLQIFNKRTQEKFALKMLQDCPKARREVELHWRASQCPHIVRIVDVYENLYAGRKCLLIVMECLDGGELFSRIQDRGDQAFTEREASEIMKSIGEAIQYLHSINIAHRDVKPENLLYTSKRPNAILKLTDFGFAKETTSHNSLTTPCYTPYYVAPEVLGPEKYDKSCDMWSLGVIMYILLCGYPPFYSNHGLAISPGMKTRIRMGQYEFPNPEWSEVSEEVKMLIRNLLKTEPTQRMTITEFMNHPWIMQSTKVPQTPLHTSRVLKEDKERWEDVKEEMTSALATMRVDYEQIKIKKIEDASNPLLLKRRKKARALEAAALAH

SMILES	outcome	AC50
N[C@@H](Cc1cc(I)c(Oc2ccc(O)c(I)c2)c(I)c1)C(=O)O	inactive	
O=c1[nH]cnc2c1ncn2[C@H]1CC[C@@H](CO)O1		inconclusive: 25 µM
CC[C@H](c1ccc(O)cc1)[C@@H](CC)c1ccc(O)cc1	inactive	
O=[N+]([O-])c1ccc(O)cc1	inactive	
c1ccc2ccccc2c1		inconclusive: 25 µM
CCCCC(CC)C(=O)OCCOCCOCCOC(=O)C(CC)CCCC (stereo not drawn)	inactive	
OC(CCl)CCl	inactive	
CCN(CC)CCOc1ccc(C(=C(Cl)c2ccccc2)c2ccccc2)cc1		inconclusive: 1.09 µM
C=CCOC(=O)c1ccccc1C(=O)OCC=C		inconclusive: 0.294 µM
Cc1ccc(N)cc1O		inconclusive: 25 µM
NC(=O)Cn1c(=O)cc(CCN2CCN(c3nccc4sccc34)CC2)c2ccc(F)cc21		inconclusive: 44.7 µM
COc1ccc(OC(F)(F)F)cc1CN[C@H]1CCCN[C@H]1c1ccccc1		inconclusive: 0.213 µM
CCc1c(C(=O)NN2CCCCC2)nn(-c2ccc(Cl)cc2Cl)c1-c1ccc(Br)cc1		inconclusive: 25 µM
C=C(C)C(N)=O		inconclusive: 25 µM
COc1nc(C)nc(NC(=O)NS(=O)(=O)c2ccccc2OCCCl)n1		active: 36.2 µM
CCCCOC(=O)CCCCCCCCC(=O)OCCCC		inconclusive: 25 µM
C[C@]12C=CC(=O)C=C1CC[C@H]1[C@@H]3C[C@@H](O)[C@](O)(C(=O)CO)[C@@]3(C)C[C@H](O)[C@@]12F		inconclusive: 0.112 µM
O=C(O)c1cccc(C(=O)O)c1		inconclusive: 25 µM

Arranged by SMILES length (rising): 3 of the compounds above
SMILES	outcome	AC50
CCCCOC(=O)CCCCCCCCC(=O)OCCCC		inconclusive: 25 µM
CCCCC(CC)C(=O)OCCOCCOCCOC(=O)C(CC)CCCC (stereo not drawn)	inactive	
CCc1c(C(=O)NN2CCCCC2)nn(-c2ccc(Cl)cc2Cl)c1-c1ccc(Br)cc1		inconclusive: 25 µM
